PubChem BioAssay AID1224827 | NIAID, 2016
The deposit covers about 3,800 reagents; shown is a random part of them. Over the whole deposit, about 2,200 (57%) were called active. 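Active means a strong reporter change in either direction; calls are per siRNA, not per gene; qiagen siRNAs gave weaker effects.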 Reagents against one gene are numbered here. Further read-outs or replicates are left out here.

Purpose: 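Retest primary hits on a TNF reporter with six siRNAs per gene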 (follow-up of hits)
System: RAW264.7 G9 mouse macrophage reporter clone
Reagents: single siRNA against mouse genes, 100 nM siRNA
Duration: siRNA for 2 days, then LPS about 16 h
Conditions: bacterial lipopolysaccharide (LPS), 10 ng/ml, cells fixed after overnight (about 16 h) stimulation
Read-out: 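TNF promoter reporter red fluorescence in nuclei, background subtracted, normalised per plate and to non-targeting control siRNA, as z-scores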
Direction: TNF reporter z-score, mean: higher = stronger Tnf promoter reporter signal
Call rule: 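Active siRNA: replicate-mean z-score of 2 or more, or -2 or less; no calls for control wells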

For Rab7 #1, what was measured?
TNF reporter z-score, mean: 0.765; Outcome: inactive

With Rab7 #2, what was measured?
TNF reporter z-score, mean: -1.65; Outcome: inactive

What is on record for Rab7 #3?
TNF reporter z-score, mean: -5.51; Outcome: active

For Rab7 #4, how do the results read?
TNF reporter z-score, mean: 0.705; Outcome: inactive

What did the screen give for Rab7 #5?
TNF reporter z-score, mean: -0.223; Outcome: inactive

What is on record for Rab7 #6?
TNF reporter z-score, mean: -2.81; Outcome: active

What did the screen give for Ncoa5 #1?
TNF reporter z-score, mean: 4.24; Outcome: active

With Ncoa5 #2, what was measured?
TNF reporter z-score, mean: -1.37; Outcome: inactive

What is on record for Ncoa5 #3?
TNF reporter z-score, mean: -2.68; Outcome: active

What did the screen give for Ncoa5 #4?
TNF reporter z-score, mean: 2.29; Outcome: active

How did the screen score Ncoa5 #5?
TNF reporter z-score, mean: 0.845; Outcome: inactive

For Ncoa5 #6, what was measured?
TNF reporter z-score, mean: -2.57; Outcome: active

Copied from the entries so far for reference:
Ncoa5 #3: TNF reporter z-score, mean = -2.68; Outcome = active
Ncoa5 #4: TNF reporter z-score, mean = 2.29; Outcome = active
